Results reported in patent US8124365B2, “Identification of genotype-selective anti-tumor agents” (Whitehead Institute for Biomedical Research, priority 2003, dated 2012).

Test system: BJ-TERT/LT/ST/RAS^V12 cells
Experiment: Calcein AM viability assay, dilution series, BJ-TERT/LT/ST/RAS^V12 tumorigenic cells
Assay type: cell-based, human
Settings: from selectivity ratio for each subsequent pair of cell lines in a series
Procedure: Described here is work carried out to identify compounds with increased potency or activity in the presence of hTERT, LT, ST, E6, E7 or RAS^V12. […] The primary screen tested (in quadruplicate) the effect of treating tumorigenic […], corresponding to 10 μM for a compound with a molecular weight of 400, which is the approximate median molecular weight of the libraries. […] In live cells, calcein AM is cleaved by intracellular esterases, forming the anionic fluorescent derivative calcein, which cannot diffuse out of live cells. […] The IC50 value (concentration required to inhibit 50% of the calcein AM signal) was calculated for each compound in each cell line (Table 1).
Calcein acetoxylmethyl ester (AM) is a cell membrane-permeable, non-fluorescent compound that is cleaved by intracellular esterases to form the anionic, cell-impermeable, fluorescent compound calcein. Viable cells are stained by calcein because of the presence of intracellular esterases and because the intact plasma membrane prevents fluorescent calcein from leaking out of cells (Wang et al., 1993, supra). […] Total fluorescence intensity in each well was recorded on a Packard Fusion platereader, and converted to a percent inhibition of signal by subtracting the instrument background and dividing by the average signal obtained when cells were not treated with any compound. […]

Row | Compound | Genetic basis of Selectivity
1 | CC[C@@]1(O)C(=O)OCc2c1cc1n(c2=O)Cc2cc3ccccc3nc2-1 [Camptothecin, camptothecin] | RAS^v12/PP2A/RB
2 | Cc1c2ccccc2c(CSC(=N)N)c2ccccc12.Cl [NSC146109] | non-specific
